Measurements reported in PubChem BioAssay AID1259279 (Sanger Institute, 2017)
The deposit covers 794 reagents; this is a part drawn at random. Of all reagents, 11 (1.4%) were called active. 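Calls reflect knock-down alone in the vehicle arm, not drug synergy.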 No viability above 1 is reported: the scale is capped. Reagent sequences are not shown. Not given: the amount of reagent, the time to read-out.

Aim: 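Kinases that colorectal cancer cells need to survive, alone or with drugs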 (primary screen)
Cell system: LS180 human colorectal cancer cells
Knock-down reagent: siRNA pool against human genes
Treatment: anchor drug BYL719 at 1 µM, cetuximab at 5 µg/ml or trametinib at 10 nM, or DMSO vehicle only
Measured: 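Viability as a fraction of non-targeting control and as a replicate-averaged robust z-score, with separate synergy scores for BYL719, cetuximab and trametinib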
Scale: viability z-score, no drug: higher = more viable cells after knock-down; viability, no drug: higher = more viable cells; synergy score with BYL719 and synergy score with cetuximab and synergy score with trametinib: higher = stronger synthetic lethal synergy with drug
Hit rule: 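Essential (active) calls need a no-drug viability z-score lower than -3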
Calls: active = essential (knock-down alone cuts viability); inactive = no change without drug

gene symbol | viability z-score, no drug | viability, no drug (fraction) | synergy score with BYL719 | synergy score with cetuximab | synergy score with trametinib | outcome
PANK4 (GeneID 55229) | -1.69 | 0.722 | 0.0161 | -0.0545 | 0.0854 | inactive
PIM1 (GeneID 5292) | 0.86 | 1 | 0.109 | 0.104 | 0.0762 | inactive
POLR2B (GeneID 5431) | -2.12 | 0.676 | -0.111 | -0.258 | -0.102 | inactive
AK5 (GeneID 26289) | -1.42 | 0.752 | -0.212 | -0.145 | -0.00814 | inactive
LCK (GeneID 3932) | 0.86 | 1 | -0.0394 | 0.0189 | 0.0288 | inactive
TRPM7 (GeneID 54822) | -0.556 | 0.846 | -0.242 | -0.203 | -0.219 | inactive
CDKN2C (GeneID 1031) | 0.309 | 0.94 | -0.056 | -0.0429 | 0.0725 | inactive
MET (GeneID 4233) | 0.86 | 1 | -0.113 | -0.131 | -0.151 | inactive
STK16 (GeneID 8576) | 0.86 | 1 | -0.096 | -0.133 | -0.0127 | inactive
MAP3K9 (GeneID 4293) | -1.55 | 0.737 | 0.129 | -0.097 | -0.0755 | inactive
CMPK1 (GeneID 51727) | 0.0418 | 0.911 | -0.186 | -0.159 | 0.00427 | inactive
SRPK1 (GeneID 6732) | -0.937 | 0.804 | -0.179 | 0.0151 | 0.00586 | inactive
EPHA2 (GeneID 1969) | 0.86 | 1 | -0.201 | -0.166 | -0.124 | inactive
NUAK1 (GeneID 9891) | 0.11 | 0.918 | -0.0534 | -0.0401 | -0.00391 | inactive
WIPF1 (GeneID 7456) | -3.59 | 0.514 | -0.159 | -0.206 | -0.0914 | active
EPHA1 (GeneID 2041) | 0.174 | 0.925 | -0.029 | -0.109 | 0.0437 | inactive
DMPK (GeneID 1760) | -1.13 | 0.783 | -0.143 | 0.0344 | -0.00111 | inactive
PIK3CG (GeneID 5294) | -0.79 | 0.82 | -0.0137 | 0.00669 | -0.0379 | inactive
PRKCB (GeneID 5579) | -1.64 | 0.727 | -0.176 | 0.0418 | -0.0049 | inactive
PHKA2 (GeneID 5256) | 0.86 | 1 | -0.035 | -0.0247 | -0.0483 | inactive
PFKM (GeneID 5213) | -0.161 | 0.889 | -0.111 | -0.0425 | 0.0318 | inactive
KALRN (GeneID 8997) | 0.86 | 1 | 0.0004 | -0.166 | 0.0865 | inactive
BRD4 (GeneID 23476) | 0.693 | 0.982 | -0.041 | 0.0308 | 0.0494 | inactive
STRADA (GeneID 92335) | -1.17 | 0.778 | -0.0615 | -0.0539 | -0.105 | inactive
RIPK2 (GeneID 8767) | 0.353 | 0.945 | 0.013 | 0.0764 | 0.128 | inactive
HK1 (GeneID 3098) | 0.86 | 1 | -0.167 | -0.11 | -0.0313 | inactive
MAGI2 (GeneID 9863) | 0.0902 | 0.916 | 0.0878 | -0.0117 | 0.0996 | inactive
ADCK5 (GeneID 203054) | 0.187 | 0.927 | -0.211 | -0.222 | -0.000818 | inactive
NME2 (GeneID 4831) | 0.55 | 0.966 | -0.139 | -0.194 | 0.0415 | inactive
ACVRL1 (GeneID 94) | 0.86 | 1 | -0.115 | -0.0725 | -0.156 | inactive
RTN4 (GeneID 57142) | 0.86 | 1 | -0.0407 | 0.0357 | -0.0851 | inactive
MAP4K2 (GeneID 5871) | -0.601 | 0.841 | -0.0932 | -0.16 | 0.0148 | inactive
AKAP9 (GeneID 10142) | 0.86 | 1 | -0.0636 | -0.123 | 0.0224 | inactive
GSK3A (GeneID 2931) | 0.113 | 0.919 | -0.0157 | -0.0822 | 0.177 | inactive
TRIM27 (GeneID 5987) | -1.23 | 0.772 | -0.149 | -0.253 | -0.163 | inactive
MAP3K10 (GeneID 4294) | 0.86 | 1 | -0.154 | -0.166 | -0.0742 | inactive
PRKAB1 (GeneID 5564) | 0.0799 | 0.915 | -0.079 | -0.136 | -0.0398 | inactive
CILK1 (GeneID 22858) | 0.256 | 0.934 | -0.0243 | -0.0165 | -0.115 | inactive
CLK2 (GeneID 1196) | 0.457 | 0.956 | -0.0969 | -0.15 | -0.0817 | inactive
PI4KA (GeneID 5297) | 0.86 | 1 | -0.0305 | 0.00614 | 0.154 | inactive
CAD (GeneID 790) | 0.86 | 1 | -0.176 | -0.166 | -0.163 | inactive
PRKAG2 (GeneID 51422) | 0.86 | 1 | -0.141 | -0.147 | -0.0346 | inactive
PAPSS1 (GeneID 9061) | -0.0171 | 0.904 | -0.243 | -0.246 | 0.0094 | inactive
PIP4K2B (GeneID 8396) | -0.0392 | 0.902 | -0.0462 | -0.119 | -0.0521 | inactive
TRIO (GeneID 7204) | -0.11 | 0.894 | -0.0178 | -0.0854 | 0.0197 | inactive
MYO3A (GeneID 53904) | -0.621 | 0.838 | -0.0219 | -0.0742 | -0.0575 | inactive
CUL1 (GeneID 8454) | 0.0165 | 0.908 | -0.228 | -0.17 | -0.244 | inactive
FBXW7 (GeneID 55294) | 0.447 | 0.955 | -0.034 | -0.142 | 0.0408 | inactive
PKM (GeneID 5315) | -0.504 | 0.851 | -0.0297 | -0.146 | 0.0175 | inactive
CEP290 (GeneID 80184) | 0.86 | 1 | -0.182 | -0.105 | -0.0679 | inactive
